PubChem BioAssay AID2685 (National Center for Advancing Translational Sciences (NCATS), 2010)
The other results are listed elsewhere or left out. Shown are side measurements of this screen, not its main read-out; they come without a call. The list favours compounds with an active or inconclusive main result. Potencies come from curve fits of mixed quality, noted in brackets.

Experiment: qHTS Assay for Lipid Storage Modulators in Drosophila S3 Cells;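 for cell number change: cells counted by Cell Tracker Red CMTPX staining in the red channel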
Settings: BODIPY lipid droplet fluorescence, 18-24 h; for cell number change: measured here: cell count max response, cells fed with added oleic acid
Procedure, shortened: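 Laser-scanning cytometry quantifies lipid droplet accumulation (500–530 nm total intensity; droplet/cell object ratio) in oleic acid-fed (400 uM added) Drosophila S3 cells treated with a concentration series. 20 uM Triacsin C defined 100% inhibition.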

[1] = measured here: lipid fluorescence (Fed channel) AC50, cells fed with added oleic acid
[2] = measured here: cell number channel AC50, cells fed with added oleic acid

Structure (SMILES)	cell number change	AC50 [1]	AC50 [2]
Cc1cccc(C(=O)NC(NCc2ccco2)C(Cl)(Cl)Cl)c1 (stereo unspecified)	-0.324%	–	–
CC(=O)CCC(=O)OCC(=O)Nc1ccc(SC(F)F)cc1	–	29.1 µM [falling, single point]	–
COCc1c(C(=O)N/N=C\c2cccnc2)nnn1-c1nonc1N	-1.35%	29.1 µM [rising, single point]	–
Cc1cccc(NC(=O)c2nc[nH]c2C(=O)N[C@@H](C)C(=O)OC(C)(C)C)c1	-27%	–	–
COc1ccc(CN2CCCC(C(=O)c3ccc4c(c3)OCO4)C2)c(F)c1 (stereo unspecified)	–	0.731 µM [rising, full curve]	–
COc1ccc(-c2nc(SC(C)C(=O)NC3CC3)n[nH]2)cc1 (stereo unspecified)	–	0.461 µM [falling, full curve, poor fit]	–
COc1ccc2c(c1)CCc1c-2nc2ccccc2c1N1CCOCC1	0.0973%	0.326 µM [rising, full curve]	–
COc1cccc(NC(=O)c2sc3nc(N4CCOCC4)c4c(c3c2N)CCCC4)c1	-30.9%	–	3.66 µM [falling, full curve, poor fit]
COc1ccc(/C=C2\CCC(C3CCCC3)C2=O)c(OC)c1OC (stereo unspecified)	24.1%	0.103 µM [rising, full curve, poor fit]	–
CCN(CC)CCCNC(=O)CNC(=O)c1nn(-c2ccc(OC)cc2)c(=O)c2ccccc12	41.7%	29.1 µM [rising, partial curve, poor fit]	0.92 µM [rising, full curve, poor fit]
O=C(OCCC1Oc2cccnc2NC1=O)c1ccc(Cl)cc1 (stereo unspecified)	10.4%	–	–
O=c1oc2cc(S(=O)(=O)NCCCO)ccc2c2ccc(S(=O)(=O)NCCCO)cc12	-4.33%	29.1 µM [rising, single point]	–
Cc1cc2c(c(/C=C/C(=O)c3ccccc3)c1)OC1(C=C2)Oc2ccccc2C(=O)N1C (stereo unspecified)	32%	–	2.91 µM [rising, partial curve]
O=C(Nc1cccc(S(=O)(=O)N2CCCCCC2)c1)c1ccc2c(c1)OCO2	33.8%	0.0259 µM [rising, full curve, poor fit]	13 µM [rising, partial curve, poor fit]
Cc1cc(C)nc(SCC(=O)NNS(=O)(=O)c2ccc(C#N)cc2)n1	4%	–	–
COC(=O)Cn1c(CN2CCOCC2)nc2c1c(=O)n(C)c(=O)n2C	13%	0.92 µM [rising, full curve, poor fit]	0.058 µM [rising, full curve, poor fit]
COc1cc(OC)cc(C(=O)N(Cc2cc3cc(C)ccc3[nH]c2=O)C(C)C)c1	-4.11%	0.231 µM [rising, full curve, poor fit]	–
N#Cc1ccc(NCC(=O)N2CCN(S(=O)(=O)c3ccccc3)CC2)cc1	1.88%	7.31 µM [falling, partial curve, poor fit]	–
CCOc1ccccc1NC(=S)N1CCN(c2cccc(C)c2C)CC1	-36.7%	–	14.6 µM [falling, single point]
Cc1cccc(NC(=O)N2CCN(Cc3ccc(Cl)cc3)CC2)c1	–	29.1 µM [falling, single point]	–

Structure (SMILES)	cell number change	AC50 [1]	AC50 [2]
CC(NS(=O)(=O)c1ccc(OCC(=O)N2CCCC2)cc1)c1ccccc1 (stereo unspecified)	8.73%	–	–
Cc1nn2c(=O)c(NC(=O)c3ccc(F)cc3)cnc2s1	-17.2%	29.1 µM [falling, single point]	–
COc1ccc(C2/C(=C(\O)c3ccc4c(c3)CC(C)O4)C(=O)C(=O)N2Cc2cccnc2)c(OC)c1 (stereo unspecified)	-14.7%	4.61 µM [rising, single point]	–
C/C(=N\NC(=O)C(=O)Nc1cccc(Cl)c1C)c1ccncc1	–	2.31 µM [falling, partial curve, poor fit]	0.00461 µM [falling, full curve, poor fit]
Cc1ccc(CCNC(=O)c2ccc(CS(=O)(=O)c3ccccc3C)o2)cc1	12.5%	0.184 µM [falling, full curve, poor fit]	–
COc1ccccc1NC(=O)C(=O)NCC(c1ccco1)N1CCc2ccccc2C1 (stereo unspecified)	22.3%	13 µM [rising, partial curve]	–
COc1cc2c(cc1OC)CN(C(=O)CCNC(=O)c1ccc(Br)cc1)CC2	–	23.1 µM [rising, single point]	–
Cc1ccc(NC(=O)CCNS(=O)(=O)c2ccc(OC(F)(F)F)cc2)c(O)c1	-5.78%	–	–
C=CCc1cc(OC)ccc1OCC(O)CN1CCN(c2ccc(OC)cc2)CC1 (stereo unspecified)	51.6%	–	–
Cc1ccc(-n2c(SCc3cc(=O)n4ccsc4n3)nnc2-c2cccnc2)c(C)c1	0.769%	25.9 µM [rising, single point]	–
C/C=C/c1ccc(OCCCn2cncn2)c(OC)c1	-10.7%	–	–
Cc1nn(-c2cccc(Cl)c2)nc1C(=O)O	65.8%	0.116 µM [falling, single point]	23.1 µM [rising, single point]
CC(C)C[C@H](NC(=O)OC(C)(C)C)C(=O)N[C@@H](CO)[C@H](O)[C@@H]1C[C@@H]1C(=O)N(C)C	19.5%	29.1 µM [rising, single point]	–
Cc1oc2cc(Br)c(O)c(Br)c2c1-c1ccccc1	-53.2%	7.31 µM [falling, partial curve]	29.1 µM [falling, single point]
Cc1nc(-c2ccc(NC(=O)c3ccc(Br)o3)cc2)cs1	-32.1%	–	2.31 µM [falling, partial curve, poor fit]
CCOP(=O)(OCC)C(Nc1cccc([N+](=O)[O-])c1)c1ccc(N(C)C)cc1 (stereo unspecified)	-14.7%	0.00651 µM [falling, full curve, poor fit]	–
O=C(Nc1ccc(O)c(C(=O)O)c1)Oc1ccccc1	10.6%	–	3.66 µM [falling, single point]
COCCNS(=O)(=O)c1cc(Br)ccc1OC	-137%	29.1 µM [falling, single point]	20.6 µM [falling, partial curve]
CCOc1ccccc1NC(=O)Cc1cccs1	-19.3%	29.1 µM [rising, single point]	–
O=C(Cn1c(-c2cncs2)nc2ccccc21)NC1CCCC1	–	0.58 µM [rising, single point]	–

Structure (SMILES)	cell number change	AC50 [1]	AC50 [2]
CCOC(=O)C(NC(=O)c1ccccc1)(N1CCOCC1)C(F)(F)F (stereo unspecified)	-20.9%	14.6 µM [falling, partial curve]	–
O=C(NCc1ccc2c(c1)OCO2)C12CC3CC(CC(C3)C1)C2	29%	13 µM [rising, partial curve]	–
Cc1onc(-c2ccccc2Cl)c1C(=O)NCc1nc(-c2ccc(C(F)(F)F)cc2)no1	-1.63%	29.1 µM [falling, single point]	–
CN(c1ccc([N+](=O)[O-])cc1C(N)=O)C1CCCCC1	3.82%	–	0.58 µM [rising, single point]
COc1cccc(/C=C2\SC(=O)N(CCC(=O)N3CCCCC3CCO)C2=O)c1 (stereo unspecified)	-0.295%	29.1 µM [falling, single point]	–
CSCCC(NC(=O)c1ccccc1Br)C(=O)NNC(=O)c1ccncc1 (stereo unspecified)	-2.59%	0.00651 µM [falling, full curve, poor fit]	–
CCOC(=O)C1CSc2[nH]c(=O)sc2C1c1ccccc1 (stereo unspecified)	-2.77%	29.1 µM [rising, single point]	–
CC(C)OCCCNC(=O)CCc1nc(-c2ccccc2)no1	2.79%	–	–
Cc1ccc(/C=N/NC(=O)c2ccc(-n3cccc3)cc2)o1	-15.6%	29.1 µM [rising, single point]	–
CCOc1ccc(CCNC(=O)CN2C(=O)NC3(CCc4ccccc43)C2=O)cc1OCC (stereo unspecified)	-48%	11.6 µM [falling, partial curve, poor fit]	18.4 µM [falling, partial curve]
COc1ccc(N(C)S(=O)(=O)c2c(C)[nH]c(=O)[nH]c2=O)cc1	-6.84%	–	–
O=C(CN1CC[n+]2c(-c3ccccc3)csc21)c1ccc(Br)cc1	17.8%	–	0.00461 µM [rising, full curve, poor fit]
Cc1ccc(NC(=S)NNC(=O)CSc2nnc(-c3ccc(Cl)cc3)n2C2CCCCC2)cc1	-47.2%	–	5.8 µM [falling, full curve]
COc1ccccc1NS(=O)(=O)c1cccc(C(=O)NN)c1	52.6%	29.1 µM [rising, single point]	13 µM [rising, partial curve]
Cc1cccc(N/N=C2/COC(C)(C)CC2=O)c1	34.2%	9.2 µM [rising, partial curve]	10.3 µM [rising, partial curve, poor fit]
COc1ccc(CNC(=O)Cn2nc(C)c3c(C)n(-c4ccc(C)cc4)nc3c2=O)cc1OC	–	–	0.058 µM [rising, full curve]
O=C1NC2(CCCCC2)CO1	23.3%	29.1 µM [rising, single point]	–
CCOCCCNC(=O)CCCC1=NS(=O)(=O)c2ccccc2N1	–	29.1 µM [falling, single point]	–
COc1cccc(CNC(=O)CSc2nc(=O)n(Cc3ccncc3)c3c2CCC3)c1	22.8%	5.17 µM [rising, full curve, poor fit]	–
C=CCc1ccccc1OCC(=O)N/N=C/c1ccc(OC(C)=O)cc1OC(C)=O	0.109%	3.66 µM [rising, single point]	–

Among those listed so far, these have a CF3 group:
Structure (SMILES)	cell number change	AC50 [1]	AC50 [2]
Cc1ccc(NC(=O)CCNS(=O)(=O)c2ccc(OC(F)(F)F)cc2)c(O)c1	-5.78%	–	–
CCOC(=O)C(NC(=O)c1ccccc1)(N1CCOCC1)C(F)(F)F (stereo unspecified)	-20.9%	14.6 µM [falling, partial curve]	–
Cc1onc(-c2ccccc2Cl)c1C(=O)NCc1nc(-c2ccc(C(F)(F)F)cc2)no1	-1.63%	29.1 µM [falling, single point]	–
